# Results taken from publication PMC8441049.
# No constants are given. Whether binding was seen depends on the method and setting. In cells and extracts the contact can be indirect. A yes stands for co-enrichment or nearness to the bait. Other partners may have been found.
# B1: Set3 (protein, UniProt Q10362 1-859)
# chain: MWKIRCVCPFEDDDGFTIQCESCEVWQHAVCVNIDANNVPEKYFCEQCQPRPIDADKAHKIQLARLQREEEQSRILSRSRSSNNKRRTSFGKNGASPTHSASPRQGNNTGANGALFSQSTNSSNSGSYRNSVTGATLPNAHAPHSQNRRRRSNHLNNPPEAPITEASNEYVYSFHLEYVPLESNTFSASALEYSKNLDLKNLDESEVLMDGCQVVPISSSKFCCSRFGLVSTCEIPPNTPIMEVKGRVCTQNEYKSDPKNQYNILGAPKPHVFFDSNSQLVVDSRVAGSKARFARKGCQSNSVVSSVYMNGSNSVPRFILYSTTHIAPETEIIGDWTLDISHPFRQFAPGMSRPSFNMEELELLSEVLSTFLSFNECASQDKKNCVFSRVTKYIKAARRASTANRVSVAKDRLSLTPSSTPSTPSPAESLPQPSNPTSVYAKSLKEFWLDKYRLSILQKWPAVKSLPTESVGIDVVMEPKLQPSVKEKKPTKDLQSPLPSVEEDSSNRDKKTDIADLHTDSKVGIADVLSPISPDAALQSDGPLKKAKEPEESSITPTTPPSFNVGESLSRRSASPLQHPRTSPDMLDKTSPCKRGLGTITTVHKKHGSVDHLPSVKRRRSIANDFHGKPDYNKRSLSIERKPEAFKTKGDRPHKVHPSFHRNSDSKLKLEPSSKEKSGSMFFNTLRTVKDKSHVHDTQRSSDVNFSRQNGTRSHSPSVSPVGFSFDKSPVTTPPLPTAPAPVITSRHALVNNQFPTNNPNILDHKANNGDDISNALNTSRSENKPNSNLVQGSVVKPSNTSASALPTSAPKKLSLSEYRQRRQQNILHQQSKDNQAHGDTARPHTVPAATVSNPSFTR
# B2: Hif2 (protein, UniProt O74845 1-564)
# chain: MDTNQVNYIIWRYLKECGYSHTKFAFERETGIQNLDKQWGSTCQVGALVEILQKGLQYVELEKHYVDNHSSNEEASKTSIDGESLVNENPCKLPFYLTVPHICETTLTKADSTNGFCEHNNSNDHQLKILQDKGSGSPSSPVMPFKDKIEKRDIDITMADESNVEKDPARPIAVYNSSPVTEITEIKQVTFTGGEDIKSDFFKVIPTKHPVTCADWRPLLQENYHVYEFSIGMTNATLASVSICEEQNDFKAKTDYCLQSSFDNQDITGVAWNNSGSFLAYAFFSGVIEIYDSHGSQILSFHNNKGPVLSLKWSGTDTYLAAGSADGTITLFDQLKQTQYSIDTLASSVLDIEWISFDEFVTSDVEGSLRVYKVDGKAPVSTVSHAHDNSIVALRYNLRISLLLTASSDTTVKLWSRGDAGAFECLHVFSFSSPVNCIDWNLREGTPILAVASNSIVSMYNAISLQQLAVFMRHTAPVSALSFSHNGRYLATGDTSGGVCIWSCKTAKLFKELGSDNSELIAVTNVLPEEQVNFLRWSFDDKDLLIGKQKKEIICCCDFLHDSL
# Target: 3x Flag-tagged Hos2 (S. pombe)
# Test: affinity purification with mass spectrometry; native complex of 3xFlag-Hos2 from S. pombe lysate on anti-Flag M2 beads (binding buffer 150 mM NaCl, 0.5% Triton X-100, 4°C; washes with 300 mM NaCl), eluted with Flag peptide, gel filtration on Superose 6 Increase, fractions analysed by silver-stained SDS-PAGE and mass spectrometry
row,Binder,binding
1,B1,binds
2,B2,binds
